Data taken from ChEMBL document CHEMBL3988442, “University of Dundee, Small-Polar-MMV Screening Library” (2021).

Amino acid sequences for entries named in this document (tags omitted).
UniProt E9BF75, entry or part of it: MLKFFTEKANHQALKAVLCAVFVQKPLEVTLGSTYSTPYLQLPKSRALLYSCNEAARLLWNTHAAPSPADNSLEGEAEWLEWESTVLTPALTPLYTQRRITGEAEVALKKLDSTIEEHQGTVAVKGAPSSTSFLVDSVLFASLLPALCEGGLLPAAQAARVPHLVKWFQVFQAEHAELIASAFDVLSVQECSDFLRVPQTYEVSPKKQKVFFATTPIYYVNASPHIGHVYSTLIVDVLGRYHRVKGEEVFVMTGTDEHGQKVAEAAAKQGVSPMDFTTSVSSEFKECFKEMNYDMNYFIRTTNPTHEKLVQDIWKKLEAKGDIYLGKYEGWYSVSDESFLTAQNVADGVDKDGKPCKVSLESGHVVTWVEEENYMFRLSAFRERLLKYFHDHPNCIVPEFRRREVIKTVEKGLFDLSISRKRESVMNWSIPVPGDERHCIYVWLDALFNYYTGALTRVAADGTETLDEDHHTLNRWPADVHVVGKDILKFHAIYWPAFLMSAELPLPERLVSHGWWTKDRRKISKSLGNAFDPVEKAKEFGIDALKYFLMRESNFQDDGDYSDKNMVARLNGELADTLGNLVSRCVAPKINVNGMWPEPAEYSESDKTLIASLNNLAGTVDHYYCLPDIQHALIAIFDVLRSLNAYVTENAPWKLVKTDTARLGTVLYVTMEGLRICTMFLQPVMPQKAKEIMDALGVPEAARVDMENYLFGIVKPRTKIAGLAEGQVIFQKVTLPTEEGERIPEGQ

All values are in %. The controls that fix the scale are not given in the record; negative values are as filed. This is an unselected part of the compounds tested.

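Primary screen of methionyl-tRNA synthetase; the read-out is not stated. Target: Methionyl-tRNA synthetase (putative), Leishmania donovani (UniProt E9BF75). The test concentration is not given. Values are per cent inhibition. About 68,000 compounds were tested under these conditions; 0.035% (about 24) showed 50% or more at least once.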

* CCn1ccc(NC(=O)CN2C(=O)C(C)(C)c3ccccc32)n1 : 17.74%
* Cc1cc(S(=O)(=O)N2CCC(N3CCC(O)C3)CC2)c(Cl)cc1Cl (stereo not shown) : 8.696%
* CN1CCC2(CC1)CC(NC(=O)c1csnn1)c1ccccc1O2 (stereo not shown) : 2.801%
* CC(C)[C@H]1CN(Cc2ccccn2)C[C@@H]1NS(=O)(=O)C1CC1 : 5.645%
* O=C(NCCN1CCCCC1)c1ccn(-c2ccccc2)n1 : 6.553%
* CN(CCc1ccccc1)C1CCCN(Cc2nccn2C)C1 (stereo not shown) : 7.087%
* O=C1NCC(C(=O)N(Cc2ccc(C(F)(F)F)cc2)C2CC2)N1 (stereo not shown) : 6.597%
* Cc1nnc(CN(Cc2ccc(Cl)c(Cl)c2)C2CC2)o1 : 6.684%
* Cc1nc2c(c(N3CCN(c4ncccc4C(N)=O)CC3)n1)CCNC2 : 3.733%
* Cc1cnn(CC(=O)N2CCC(c3ccn4nccc4n3)CC2)c1 : 11.64%
* Cc1noc(C)c1C[S+]([O-])Cc1cn2cccc(C)c2n1 (stereo not shown) : 25.54%
* CC(C)(C)n1ncc2c1NC(=O)CC2c1ccccc1 (stereo not shown) : 13.33%
* CC(NCc1ccccn1)c1cc2c(cc1Br)OCCO2 (stereo not shown) : 16.43%
* C1CCN(CCO[C@@H]2CC[C@H]3[C@H]2OCCN3CC2CCOCC2)C1 : 13.77%
* Cc1ccccc1-n1cnc(Cl)c1C(=O)O : 10.9%
* CN(CCCc1ccccc1)Cc1nc2c(cnn2C)c(=O)[nH]1 : 9.15%
* O=C1[C@H]2CN(Cc3ccccc3)C[C@H]2CN1c1cncnc1 : 10.22%
* O=C(O)C(c1ccc2c(c1)OCCO2)N1CCC(N2CCSCC2)CC1 (stereo not shown) : 15.76%
* Cc1ccc(CN2CC[C@@H](NC(=O)c3cccnc3)[C@H](O)C2)o1 : 8.782%
* Cc1c(NC(C)C(C)C)cccc1C(=O)NCc1nccn1C (stereo not shown) : 9.218%
* Cc1nn(CC(C)C)cc1S(=O)(=O)N(C)Cc1nonc1C : 13.3%
* O=C(C(CNCc1cccc(O)c1)c1ccccc1)N1CCOCC1 (stereo not shown) : 12.81%
* CC(C)c1cnc(CN2CCCC(c3ccn[nH]3)C2)o1 (stereo not shown) : 9.03%
* Cc1noc([C@@H]2C[C@H]3CN(Cc4ccc5c(c4)OCO5)C[C@H]3O2)n1 : 13.45%
* Cc1cc(C)n(-c2cncc(N3CCC(C(=O)N(C)C)CC3)n2)n1 : 0%
* CN(Cc1ccncc1)C(=O)NC1CCS(=O)(=O)C1 (stereo not shown) : 13.88%
* Cn1cc(-c2nc(CN3CCOC(Cn4cncn4)C3)cs2)cn1 (stereo not shown) : 10.89%
* Cc1nc(CN2CCCN(C(=O)c3c(C)oc(C)c3C)CC2)cs1 : 18.78%
* CCN(Cc1cc(=O)n2cc(Br)ccc2n1)C1CC1 : 23.12%
* CN(C)c1ccc(C(=O)N2CCCN(Cc3cnn(C)c3)CC2)nn1 : 16.21%
* O=C(O)[C@@H]1CN(CC2CCC2)C[C@H]1c1ccc(F)cc1 : 9.747%
* CN1CSC[C@H]1C(=O)N1CCC(Cc2ccccc2F)CC1 : 17.22%

Once more, the final 2:

| structure | inhibition |
|---|---|
| `O=C(O)[C@@H]1CN(CC2CCC2)C[C@H]1c1ccc(F)cc1` | 9.747 |
| `CN1CSC[C@H]1C(=O)N1CCC(Cc2ccccc2F)CC1` | 17.22 |